Data published in PubChem BioAssay AID1347076 (National Center for Advancing Translational Sciences (NCATS), 2019).
Out of some 400,000 compounds screened, about 13,000 (3.2%) were called active. Inconclusive means that the source gave no clear call. Such entries were picked first, then a sample of the others. The call rests on the fitted dose curve; in most records, active means well fitted cell-killing curve with a large enough effect; inconclusive means small, poorly fitted or top-dose-only effect, or effect the other way; inactive means flat fitted curve, though single readings scatter. Where the call is inconclusive, the potency comes from a doubtful curve fit.

test: qHTS assay for MDR1-selective chemotherapeutics: Primary screen using the drug-selected MDR subline cells KB-V1; conditions: KB-V1 MDR cells viability, CellTiter-Glo, 72 h; activity change, negative = cytotoxicity: at 46.1 µM (top of the series); further: nearly all actives have a fitted effect of over 60% in size
Outline: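 KB-V1 cells (P-gp-expressing MDR subline of KB-3-1) in phenol-red-free DMEM with 10% FBS were exposed to library compounds over a concentration series for 72 h at 37 degrees C. Viability read by CellTiter-Glo luminescence; concentration-effect curves fitted after normalization.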
On the % scale 0 is the no-effect control and ±100 the full control effect; potency means the concentration at half of the fitted maximal effect.

| SMILES | Potency | activity change, negative = cytotoxicity |
| --- | --- | --- |
| COc1ccc(Br)cc1CN(C)CC(=O)Nc1cc(Cl)cc(Cl)c1 | active: 7.31 µM | – |
| Cc1ncsc1C(=O)Nc1nc2c(s1)CCCC2 | active: 13 µM | – |
| Cn1nc(C(C)(C)C)cc1N1C(=O)CCC1(C)C(=O)NC1CCCCC1 (configuration not stated) | – | inactive: 19% |
| COCCn1c(-c2cccs2)csc1=Nc1cccnc1 | – | inactive: 1.36% |
| COc1cccc(NC(=O)Nc2cccn(Cc3ccc(C)cc3)c2=O)c1 | inconclusive: 8.2 µM [cytotoxic, partial curve] | – |
| Cc1ccc(OC(=O)c2oc3ccc(F)cc3c2C)c(C)c1 | – | inactive: -7.63% |
| CCCCSc1nc2c(cnn2-c2ccc(F)cc2)c(=O)[nH]1 | inconclusive: 29.1 µM [rising, single point] | – |
| COc1ccc(C(=O)NCc2ccc(S(N)(=O)=O)cc2)cc1[N+](=O)[O-] | inconclusive: 29.1 µM [rising, partial curve, poor fit] | – |
| CCC(C)Nc1nc(Cl)nc(N(C#N)CN2C(=O)c3ccccc3S2(=O)=O)n1 (configuration not stated) | – | inactive: 6.02% |
| COc1cc(C(=O)NCC(=O)NCCSc2ccc(Br)cc2)cc(OC)c1OC | – | inconclusive: -38.7% [cytotoxic] |
| COc1ccc(-c2cc(C(=O)OCC(=O)NC3CC3)c3ccccc3n2)cc1 | – | inactive: -16.9% |
| Cc1ccc(C(NC(=O)C2CCN(CCCOc3ccccc3)CC2)c2ccccn2)cc1 (configuration not stated) | – | inactive: -19.4% |
| Cc1cccc(OCCC(=O)OC(C)C(=O)Nc2ccc(Cl)cn2)c1 (configuration not stated) | – | inactive: 12.5% |
| O=C(CC[C@H]1O[C@@H](n2ccc(=O)[nH]c2=O)[C@H](O)[C@@H]1O)NCCCc1ccccc1 | – | inactive: 7.88% |
| Cc1nnc(NC(=O)CSc2ccc3nnc(-c4ccccn4)n3n2)s1 | inconclusive: 23.1 µM [rising, single point] | – |
| S=C(NCc1ccco1)Nc1ccccc1 | inconclusive: 29.1 µM [rising, single point] | – |
| Cc1cc(C)nc(SCC(=O)Nc2ccc(S(=O)(=O)NC(C)(C)C)cc2)n1 | active: 20.6 µM | – |
| COc1cc(OC)cc(C(=O)N[C@H](C(=O)Nc2ccc3c(c2)OCO3)C(C)C)c1 | inconclusive: 14.6 µM [cytotoxic, partial curve, poor fit] | – |
| CCCc1nc2oc3c(NCC4CCCO4)ncnc3c2c2c1COC(C)(C)C2 (configuration not stated) | inconclusive: 8.2 µM [cytotoxic, partial curve] | – |
| CCCOc1ccc(C2C(=O)N(C3CCCCC3)CC(=O)N2CCc2ccccc2)cc1OC (configuration not stated) | – | inactive: 2.04% |
| COc1cccc(C(=O)Nc2ccccc2N2CCCC2)c1 | inconclusive: 20.6 µM [cytotoxic, single point] | – |
| COc1cccc(NC(=O)c2cc([N+](=O)[O-])ccc2NC(=O)CNCC2CCCO2)c1 (configuration not stated) | inconclusive: 18.4 µM [cytotoxic, single point] | – |

Three entries from above, ordered by molecular weight, rising:

| SMILES | Potency | activity change, negative = cytotoxicity |
| --- | --- | --- |
| S=C(NCc1ccco1)Nc1ccccc1 | inconclusive: 29.1 µM [rising, single point] | – |
| Cn1nc(C(C)(C)C)cc1N1C(=O)CCC1(C)C(=O)NC1CCCCC1 (configuration not stated) | – | inactive: 19% |
| Cc1ccc(C(NC(=O)C2CCN(CCCOc3ccccc3)CC2)c2ccccn2)cc1 (configuration not stated) | – | inactive: -19.4% |
